Test results from patent US20160324943 (published 2016).

Assay: general procedure: Fmoc solid-phase peptide synthesis; 2-Cl-Trt-Cl resin; TBTU/HOBt, diisopropylethylamine
Conditions: whole synthesis, scale of the general procedure 20 g resin

Bivalirudin
final HPLC purity (214 nm): at least 99.0%
final HPLC purity (HPLC, Synergi C12 Max-RP, UV 214 nm): at least 99.0%
